Values from PubChem BioAssay AID1224830 (NIAID, 2016).
Test: 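Genes whose knock-down alters the TNF-alpha reporter response to LPS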 (primary screen). Cells: human THP-1 monocytic leukaemia cells, TNF dual-luciferase reporter clone, PMA-differentiated to macrophage-like cells. Knock-down reagent: siRNA pool against human genes, 50 nM. Timing: LPS for 4 h, given about 3 days after siRNA transfection. Conditions: bacterial LPS (TLR4 ligand), 10 ng/ml. Detection: 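Ratio of firefly to renilla light, scaled to the plate median and expressed as a robust z-score per replicate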. Reading the numbers: TNF reporter robust z-score: higher = stronger TNF reporter response to LPS. Active means: 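a well is active when its z-score exceeds 2.8 or falls below -1.5; control wells carry no call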.
The deposit covers about 18,000 reagents; below is an unselected part. About 2,900 of all reagents (16%) count as active. 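Calls are made per well; low scores hint the gene aids the LPS response, high scores that it dampens it.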 A number with no mark means an inactive call. Repeated entries: four replicate wells of each siRNA pool. Reagent sequences are not shown.

How did the screen score TESK1?
TNF reporter robust z-score: -0.65

With TESK1, what was measured?
TNF reporter robust z-score: -0.76

For TESK1, what does the deposit list?
TNF reporter robust z-score: -1.6 (active)

How did the screen score TESK1?
TNF reporter robust z-score: -0.13

For QTMAN, what was measured?
TNF reporter robust z-score: 0.26

Which result is listed for QTMAN?
TNF reporter robust z-score: 0.22

What did the screen give for QTMAN?
TNF reporter robust z-score: 0.07

For PRR4, what was measured?
TNF reporter robust z-score: -0.02

For PRR4, how do the results read?
TNF reporter robust z-score: 1.24

For PRR4, how do the results read?
TNF reporter robust z-score: 0.77

What did the screen give for PRR4?
TNF reporter robust z-score: 0.41

For EIF4G2, what was measured?
TNF reporter robust z-score: -1.69 (active)

Which result is listed for EIF4G2?
TNF reporter robust z-score: -0.42

What is on record for EIF4G2?
TNF reporter robust z-score: -1.41

How did the screen score EIF4G2?
TNF reporter robust z-score: -0.84

For PPIH, what was measured?
TNF reporter robust z-score: -1.4

With PPIH, what was measured?
TNF reporter robust z-score: -0.77

For PPIH, what was measured?
TNF reporter robust z-score: -0.93

What is on record for PPIH?
TNF reporter robust z-score: -1.31

For LTAP1, how do the results read?
TNF reporter robust z-score: 1.81

What did the screen give for LTAP1?
TNF reporter robust z-score: 3.16 (active)

What is on record for LTAP1?
TNF reporter robust z-score: 3.82 (active)

With LTAP1, how do the results read?
TNF reporter robust z-score: 1.11

What did the screen give for GNAT1?
TNF reporter robust z-score: -0.07

For GNAT1, what does the deposit list?
TNF reporter robust z-score: 0.11

For GNAT1, how do the results read?
TNF reporter robust z-score: -0.25

With GNAT1, what was measured?
TNF reporter robust z-score: 0.78

How did the screen score CNOT9?
TNF reporter robust z-score: -0.12

What did the screen give for CNOT9?
TNF reporter robust z-score: 0.92

With CNOT9, what does the deposit list?
TNF reporter robust z-score: 1.25

For CNOT9, how do the results read?
TNF reporter robust z-score: 7.6 (active)

What is on record for TCAIM?
TNF reporter robust z-score: 2.08

For TCAIM, what was measured?
TNF reporter robust z-score: 1.73

For TCAIM, what does the deposit list?
TNF reporter robust z-score: 2.31

With TCAIM, how do the results read?
TNF reporter robust z-score: 1.59

For FTL, how do the results read?
TNF reporter robust z-score: 1.75

For FTL, how do the results read?
TNF reporter robust z-score: -0.66

With FTL, how do the results read?
TNF reporter robust z-score: -0.44

For FTL, how do the results read?
TNF reporter robust z-score: 0.87

With SFR1, what does the deposit list?
TNF reporter robust z-score: -1.4

How did the screen score SFR1?
TNF reporter robust z-score: -0.9

How did the screen score SFR1?
TNF reporter robust z-score: -0.21

What did the screen give for SFR1?
TNF reporter robust z-score: -0.08

With PKN2, what does the deposit list?
TNF reporter robust z-score: -1.69 (active)

With PKN2, what does the deposit list?
TNF reporter robust z-score: -1.67 (active)

For PKN2, what was measured?
TNF reporter robust z-score: 0.61

Which result is listed for PKN2?
TNF reporter robust z-score: 0.34

How did the screen score RBM15B?
TNF reporter robust z-score: -0.64

What did the screen give for RBM15B?
TNF reporter robust z-score: -0.31

For RBM15B, how do the results read?
TNF reporter robust z-score: 0.5

How did the screen score RBM15B?
TNF reporter robust z-score: -0.35

For COA5, what does the deposit list?
TNF reporter robust z-score: 1.89

With COA5, what does the deposit list?
TNF reporter robust z-score: 1.69

How did the screen score COA5?
TNF reporter robust z-score: 1.37

What is on record for COA5?
TNF reporter robust z-score: -0.46

With RHOT1, how do the results read?
TNF reporter robust z-score: -0.33

Which result is listed for RHOT1?
TNF reporter robust z-score: 0.22

How did the screen score RHOT1?
TNF reporter robust z-score: 18.5 (active)

With RHOT1, what was measured?
TNF reporter robust z-score: 1.89

What did the screen give for CALY?
TNF reporter robust z-score: -0.37

With CALY, what does the deposit list?
TNF reporter robust z-score: 3.1 (active)

For CALY, how do the results read?
TNF reporter robust z-score: 1.22

For CALY, what was measured?
TNF reporter robust z-score: 2.99 (active)

Sorted by “TNF reporter robust z-score” (highest first): 4 of the entries above.
EIF4G2 → TNF reporter robust z-score: -0.42
EIF4G2 → TNF reporter robust z-score: -0.84
PPIH → TNF reporter robust z-score: -1.4
EIF4G2 → TNF reporter robust z-score: -1.41
